Patent US20030211075A1 (priority 2001, published 2003)
No constants are given. Whether binding was seen depends on the method and setting.

Experiments:
[1] = molecular target: T1, recombinant, depyrogenated truncated Tissue Factor (amino acids 1-219), from expression vector pswc7 (human), P13726; test: SPR (Biacore), tTF alone injected over tTF immobilized by amine coupling or captured by an anti-human TF antibody; conditions: remark: other sources report otherwise
T1 chain: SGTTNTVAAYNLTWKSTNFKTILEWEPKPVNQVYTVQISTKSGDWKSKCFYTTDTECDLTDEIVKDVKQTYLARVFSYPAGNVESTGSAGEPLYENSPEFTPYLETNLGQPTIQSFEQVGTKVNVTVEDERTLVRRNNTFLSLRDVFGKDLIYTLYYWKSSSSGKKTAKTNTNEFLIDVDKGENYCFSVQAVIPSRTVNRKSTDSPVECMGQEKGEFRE

[2] = molecular target: T1, recombinant, depyrogenated truncated …; test: SPR (Biacore), tTF preincubated with LPS (10 µg/ml) injected over immobilized tTF; conditions: remark: other sources report otherwise

- binding [1]: no binding (tested: 30 µg/ml)
- binding [2]: no binding (tested: 30 µg/ml)
B1: recombinant, depyrogenated truncated Tissue Factor (amino acids 1-219), from expression vector pswc7, P13726 33-251 (receptor, human, UniProt P13726 33-251, looked up)
chain: T1 chain
